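Histidine-tRNA ligase, Trypanosoma cruzi CL Brener (UniProt Q4DA54). Enzyme assay of histidyl-tRNA synthetase; the read-out is not stated. Tested at 30 µM. The record gives no direction; compounds that gave an IC50 in retests scored well above the rest, so higher reads as stronger inhibition. About 69,000 compounds were tested under these conditions; 0.045% (about 31) showed 50% or more at least once.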

Chains of the proteins cited; added tags and fusions are not shown. Residues count along the entry.
UniProt Q4DA54, 1-478: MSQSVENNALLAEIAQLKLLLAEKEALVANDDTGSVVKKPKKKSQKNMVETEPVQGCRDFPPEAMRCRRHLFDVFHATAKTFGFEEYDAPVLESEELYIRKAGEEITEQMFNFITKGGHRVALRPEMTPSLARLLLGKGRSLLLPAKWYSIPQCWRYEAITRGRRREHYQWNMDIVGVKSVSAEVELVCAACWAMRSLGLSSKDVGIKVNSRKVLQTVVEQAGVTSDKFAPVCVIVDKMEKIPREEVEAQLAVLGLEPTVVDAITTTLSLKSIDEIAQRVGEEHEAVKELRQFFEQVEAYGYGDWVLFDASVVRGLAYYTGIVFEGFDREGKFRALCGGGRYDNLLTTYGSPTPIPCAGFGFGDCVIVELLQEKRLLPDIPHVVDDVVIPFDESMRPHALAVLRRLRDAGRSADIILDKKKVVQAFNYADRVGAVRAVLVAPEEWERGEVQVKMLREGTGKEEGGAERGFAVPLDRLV

The filed quantity is “Percent Effect” (%).
How 0% and 100% were set is not recorded. Most values in the screen are low, and negative values occur.
Compounds were drawn at random from those tested, without regard to their results.

For CCCc1n[nH]c(C2CN(CC(=O)N(C)Cc3ccco3)CCO2)n1 (configuration not stated) the result was 5.435%.
For Cc1ccc2c(C(=O)N(C)C)cc(-c3cnn(CCO)c3)nc2c1C the result was 7.035%.
For O=C(NCCOCCO)c1cnc(-c2ccccc2)nc1O the result was 5.102%.
For O=C(c1nc2c(s1)CCCN2CC1CC1)N1CCCC1 the result was 3.448%.
For CCc1noc(C(C)SCCS(C)(=O)=O)n1 (configuration not stated) the result was -1.538%.
For Cn1cc(CN2C[C@@H]3COC[C@@H](C(=O)N4CCCCO4)[C@@H]3C2)cn1 the result was 4.918%.
For COCCN1CCC1c1cc(NC2CCCC2)nc(C)n1 (configuration not stated) the result was 7.28%.
For c1ccc(-c2cc(CN3C[C@@H]4CC[C@H](C3)N(CC3CC3)C4)on2)cc1 the result was 18.18%.
For Cc1ccc(CN2Cc3ccnn3CC(C(=O)NCC3CC3)C2)o1 (configuration not stated) the result was 5.714%.
For Cc1noc(NC(=O)c2ccc(C)c(F)c2)n1 the result was -10.53%.
For c1cc(-c2c[nH]c([C@@H]3COCCN3Cc3ncc[nH]3)n2)ccn1 the result was -0.4975%.
For CN(C)C(=O)COC[C@]12COC[C@H]1CN(C1CCCC1)C2 the result was 9.524%.
For NC(=O)c1ccc(N2CCN(Cc3ccc(F)cc3Cl)CC2)nn1 the result was 0.9852%.
For CN1CCN(Cc2cccc(NCc3ncc[nH]3)c2)CC1 the result was -2.521%.
For Cc1cccc2c1nc1n2[C@@H](CNC(=O)C2CCOCC2)COC1 the result was 4.348%.
For COCCN1CC[C@]2(CN(C(=O)c3cccs3)C[C@H]2C)C1=O the result was 3.759%.
For CCOc1cc(NC(=O)N(C)Cc2ncnn2C)ccc1C the result was 4.598%.
For O=C1CSC(c2ccsc2)c2c(n(C3CCCC3)[nH]c2=O)N1 (configuration not stated) the result was -1.754%.
For Cc1nc(C2(NCC(=O)NCCc3cccs3)CCCC2)no1 the result was 0%.
For CC1COCCN1C(=O)c1cccc(OCc2cscn2)c1 (configuration not stated) the result was 0%.
For O=C(CCC(=O)c1ccccc1)NC1(C(=O)NCC2CC2)CCCC1 the result was 4.202%.
For CCC(=O)N1CCCC1(C)c1nc(C)no1 (configuration not stated) the result was 10.61%.
For CC(O)CN(CC(=O)NC(=O)NCC(F)(F)F)c1ccccc1 (configuration not stated) the result was -0.3774%.
For COC(=O)c1ccc(S(=O)(=O)NC2CNC(=O)C2)cc1 (configuration not stated) the result was 13.57%.
For CCS(=O)(=O)N1CCn2c(COCC3CCOCC3)cnc2C1C (configuration not stated) the result was 4.813%.
For Cc1cc(C2CCCN2Cc2cc(=O)n(C)c(=O)n2C)no1 (configuration not stated) the result was 2.639%.
For CCn1c(CN(C)C)nnc1C1CCN(Cc2ccccc2)CC1 the result was 1.674%.
For CC(C)N(CC(N)=O)Cc1cccc(C(F)(F)F)c1 the result was 4.433%.
For CC(c1ccncc1)N(C)C(=O)NCCOc1ccc(C#N)cc1 (configuration not stated) the result was 2.97%.
For O=C(c1cscn1)N1CC[C@@H]2[C@@H]1CCN2CC1CCOC1 (some centres not stated) the result was 5.556%.
For COCC(=O)NCCc1nc(N(C)C)ncc1-c1ccncc1 the result was 4.981%.
For CCC[C@H]1CN(CCS(C)(=O)=O)C[C@@H]1NC(=O)c1ccccn1 the result was 3.093%.
For CCS(=O)(=O)N(C)C1CCN(C(=O)c2cccc(Cl)c2)CC1 the result was -3.743%.
For CCC(CC)CN1CCN(CC(=O)Nc2cccc3nsnc23)CC1 the result was 2.591%.
For CC(=O)NCc1ccc(-c2ccccc2C(=O)O)cn1 the result was 7.714%.
For CC(=O)N1CC2(CCN(C(=O)C3CC3)CC2)c2cc(C)ccc21 the result was 2.299%.
For CS(=O)(=O)N1CCC(Cc2cnc(Br)cn2)CC1 the result was 6.977%.
For Cc1ccccc1CN(CCN(C)C)Cc1ccc(S(C)(=O)=O)cc1 the result was -7.143%.
For CCC1=N[C@@]2(CC[C@@H]3CN(CC)C[C@@H]32)C(=O)N1C the result was 4.233%.
For O=C(CCn1ncc2c(Cl)cccc21)NCC1CC1 the result was 6.087%.
For Cc1noc(COCC(=O)N2CCCC(c3nccs3)C2)n1 (configuration not stated) the result was 6.494%.
For Cc1ccc(C)c(Sc2nccn(C)c2=O)c1 the result was 3.333%.
For Cc1n[nH]c(C)c1-c1nccnc1CC1CCN(C(C)C)CC1 the result was -1.111%.
For COCCn1ccc2ccc(NC(=O)NCc3noc(C)n3)cc21 the result was 1.538%.
For Cc1noc(C2CCCN(C(=O)c3ccc(Cl)cc3F)C2)n1 (configuration not stated) the result was -5.042%.
For COc1nc(C)c(C(=O)N2CCc3[nH]nc(Cc4ccccc4)c3C2)s1 the result was 4.124%.
For Cc1noc(C(C)N2CCN(CCCN3CCCC3=O)CC2)n1 (configuration not stated) the result was -1.504%.
For O=C(c1ccncc1F)N1CCc2onc(COc3cccnc3)c2C1 the result was 4.902%.
For NC(=O)COc1cccc(C(=O)NCc2ccc(Cl)s2)c1 the result was 2.051%.
For CN1CCNC(=O)C1CC(=O)NCCc1cnn(-c2ccccc2)c1 (configuration not stated) the result was 7.296%.

6 of the entries, repeated:

| SMILES | effect |
|---|---|
| `O=C(NCCOCCO)c1cnc(-c2ccccc2)nc1O` | 5.102% |
| `CC(=O)N1CC2(CCN(C(=O)C3CC3)CC2)c2cc(C)ccc21` | 2.299% |
| `CS(=O)(=O)N1CCC(Cc2cnc(Br)cn2)CC1` | 6.977% |
| `Cc1ccc2c(C(=O)N(C)C)cc(-c3cnn(CCO)c3)nc2c1C` | 7.035% |
| `O=C(c1cscn1)N1CC[C@@H]2[C@@H]1CCN2CC1CCOC1` (some centres not stated) | 5.556% |
| `CN1CCN(Cc2cccc(NCc3ncc[nH]3)c2)CC1` | -2.521% |

The values are deposited in ChEMBL (CHEMBL3988442, “University of Dundee, Small-Polar-MMV Screening Library” (2021)).